Our source for the binding values is publication PMC12516175.

Results are given in words; binding and its absence hold for the method and conditions named. Binding seen in cells or lysates may run through a third protein.

The target of the assay is SLC7A11 (rat (endogenous in RIN5mF)). Briefly: co-IP; lysates of dRib-treated RIN5mF cells incubated overnight with Protein A/G magnetic bead-antibody mixtures; eluates analysed by western blotting. (In general: Immunoblotting shows a protein as a band on a membrane.)

B1: TRIM26 (enzyme, UniProt P62603 1-542)
chain: MAVSAPLRSLEEEVTCSICLDYLRDPVTIDCGHVFCRSCTSDIRPISGNRPVCPLCKKPFKKENIRPVWQLASLVENIERLKVDNGKQPGELAREPQDMKLCERHQEKLHYYCEDDGKLLCVMCRESREHRPHTAVLVEKAALPHREKILNHLNTLRRDRDKIQGFQAKGEADILAALTKLQEQRQYIVAEFKQGHQFLKKREQHLLDQLATLEQLLTEGREKFKTRGVSELDRLTLVISELEGKARQPAAELMQLSDRLSCLSLRYPRKKFWIGKAIPHMVKRKAGEFSDKLLSLQRGLRQFQGKLLRDLEYKTVSVTLDPQSASGYLQLSEDWKCITYTGQYQSDCLLPQQFDCEPGVLGSKGFTWGKVYWEVELEREGWSEDEEEGEEEEEGEEEEEDEEPGYGDRYEDWETDEEDESLGEEEEEEEEEEEEVQESCMVGVAKDSVKRKGNLSLRPEDGVWALRLSPSGIWANTSPEAQLFPVLRPRRVGIALDYEGGTVTFTNAESQELIYTFTTTFTRRLVPFLWLKWPEARLLLRP
In the case of B1, the binding result is on record as “no binding”.
